PubChem BioAssay AID743454 | Peter MacCallum Cancer Centre, 2014
The deposit covers about 18,000 reagents; below is a part drawn at random. 450 of all reagents (2.5%) were called active. 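Single biological run; no consistent viability z cut-off exists, so the class columns, not z-scores, define the calls.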

Test: 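Knock-downs lowering viability or raising caspase 3/7 activity in vorinostat-treated resistant cells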 (primary screen)
Cell system: human HCT116-VR colon cancer cells, selected for vorinostat resistance
Reagent: siRNA pool against human genes, 40 nM siRNA pool
Time to read-out: vorinostat for 24 h, read-out about 72 h after transfection
Treatment: vorinostat at 2.5 µM final
Detection: 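Two measures, CellTiter-Fluor viability and luminescent caspase 3/7 activity, each as fold change against same-plate mock wells, mean of duplicates, then screen-wide robust z-score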
Direction: viability robust z-score: higher = more viable cells than screen typical; caspase robust z-score: higher = more caspase 3/7 activity than screen typical
Hit rule: 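Hits are knock-downs in viability class RV1/RV2 or caspase class CA1/CA2, excluding ones that killed cells in the no-drug cell-count arm; hits then retested with single siRNAs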

{"target gene": "ZBTB5", "viability hit class": "no change", "caspase hit class": "no change", "viability robust z-score": 0.32, "caspase robust z-score": 0.43, "Call": "inactive"}
{"target gene": "AP5S1", "viability hit class": "RV2 (reduced viability)", "caspase hit class": "no change", "viability robust z-score": -2.96, "caspase robust z-score": 0.26, "Call": "active"}
{"target gene": "PBXIP1", "viability hit class": "no change", "caspase hit class": "no change", "viability robust z-score": 0.11, "caspase robust z-score": 0.29, "Call": "inactive"}
{"target gene": "TOMM40", "viability hit class": "no change", "caspase hit class": "no change", "viability robust z-score": -0.26, "caspase robust z-score": -0.64, "Call": "inactive"}
{"target gene": "WDR93", "viability hit class": "no change", "caspase hit class": "no change", "viability robust z-score": 0.5, "caspase robust z-score": 0.18, "Call": "inactive"}
{"target gene": "SMARCA1", "viability hit class": "no change", "caspase hit class": "no change", "viability robust z-score": -0.05, "caspase robust z-score": 0.02, "Call": "inactive"}
{"target gene": "LRRC37B", "viability hit class": "no change", "caspase hit class": "no change", "viability robust z-score": 0.21, "caspase robust z-score": 0.4, "Call": "inactive"}
{"target gene": "PANX3", "viability hit class": "no change", "caspase hit class": "no change", "viability robust z-score": -0.56, "caspase robust z-score": 0.07, "Call": "inactive"}
{"target gene": "COX11", "viability hit class": "no change", "caspase hit class": "no change", "viability robust z-score": 0.28, "caspase robust z-score": 0.76, "Call": "inactive"}
{"target gene": "CD99L2", "viability hit class": "no change", "caspase hit class": "no change", "viability robust z-score": -0.55, "caspase robust z-score": 0.34, "Call": "inactive"}
{"target gene": "UBA3", "viability hit class": "no change", "caspase hit class": "no change", "viability robust z-score": 0.66, "caspase robust z-score": 0.85, "Call": "inactive"}
{"target gene": "HOXD10", "viability hit class": "no change", "caspase hit class": "no change", "viability robust z-score": -0.12, "caspase robust z-score": 1.29, "Call": "inactive"}
{"target gene": "WTIP", "viability hit class": "no change", "caspase hit class": "no change", "viability robust z-score": 0.71, "caspase robust z-score": 0.06, "Call": "inactive"}
{"target gene": "GABRQ", "viability hit class": "no change", "caspase hit class": "no change", "viability robust z-score": -1.66, "caspase robust z-score": 0.06, "Call": "inactive"}
{"target gene": "MCOLN1", "viability hit class": "no change", "caspase hit class": "no change", "viability robust z-score": -0.06, "caspase robust z-score": 0.38, "Call": "inactive"}
{"target gene": "PTP4A3", "viability hit class": "no change", "caspase hit class": "no change", "viability robust z-score": 0.48, "caspase robust z-score": 1.33, "Call": "inactive"}
{"target gene": "ZP1", "viability hit class": "no change", "caspase hit class": "no change", "viability robust z-score": 0.8, "caspase robust z-score": -0.11, "Call": "inactive"}
{"target gene": "LRRC40", "viability hit class": "no change", "caspase hit class": "no change", "viability robust z-score": -1.67, "caspase robust z-score": 0.45, "Call": "inactive"}
{"target gene": "GCM1", "viability hit class": "no change", "caspase hit class": "no change", "viability robust z-score": 1.26, "caspase robust z-score": -0.89, "Call": "inactive"}
{"target gene": "GP9", "viability hit class": "no change", "caspase hit class": "no change", "viability robust z-score": 0.57, "caspase robust z-score": 0.53, "Call": "inactive"}
{"target gene": "PKMYT1", "viability hit class": "no change", "caspase hit class": "no change", "viability robust z-score": 1.58, "caspase robust z-score": -0.2, "Call": "inactive"}

Part of the list above, limited to “caspase robust z-score”:
PANX3	0.07
COX11	0.76
CD99L2	0.34
